# In publication PMC5696369:
# By UniProt entry, the sequences of proteins in these tests, tags left out.
# UniProt Q8TAG9: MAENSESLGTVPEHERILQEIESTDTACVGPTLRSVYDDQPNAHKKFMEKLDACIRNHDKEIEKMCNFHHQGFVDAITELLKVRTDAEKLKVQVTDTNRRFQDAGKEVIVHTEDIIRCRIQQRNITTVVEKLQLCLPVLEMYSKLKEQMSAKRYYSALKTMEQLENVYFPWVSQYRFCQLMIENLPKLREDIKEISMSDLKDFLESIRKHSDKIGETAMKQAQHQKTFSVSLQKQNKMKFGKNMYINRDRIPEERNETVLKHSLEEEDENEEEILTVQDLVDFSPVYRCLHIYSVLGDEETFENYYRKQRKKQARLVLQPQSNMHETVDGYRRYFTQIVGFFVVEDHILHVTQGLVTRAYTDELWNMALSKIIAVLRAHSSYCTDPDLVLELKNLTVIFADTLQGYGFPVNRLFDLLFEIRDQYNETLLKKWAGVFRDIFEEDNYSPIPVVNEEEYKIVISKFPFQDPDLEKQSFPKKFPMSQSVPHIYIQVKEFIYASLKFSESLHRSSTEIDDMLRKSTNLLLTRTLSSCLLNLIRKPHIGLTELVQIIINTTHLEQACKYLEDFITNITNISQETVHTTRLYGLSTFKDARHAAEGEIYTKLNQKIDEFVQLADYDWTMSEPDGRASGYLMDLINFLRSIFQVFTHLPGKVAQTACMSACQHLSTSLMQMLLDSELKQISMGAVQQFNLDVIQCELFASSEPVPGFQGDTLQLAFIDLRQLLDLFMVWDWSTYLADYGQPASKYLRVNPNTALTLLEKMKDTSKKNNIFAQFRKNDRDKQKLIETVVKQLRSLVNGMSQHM
# UniProt O00471: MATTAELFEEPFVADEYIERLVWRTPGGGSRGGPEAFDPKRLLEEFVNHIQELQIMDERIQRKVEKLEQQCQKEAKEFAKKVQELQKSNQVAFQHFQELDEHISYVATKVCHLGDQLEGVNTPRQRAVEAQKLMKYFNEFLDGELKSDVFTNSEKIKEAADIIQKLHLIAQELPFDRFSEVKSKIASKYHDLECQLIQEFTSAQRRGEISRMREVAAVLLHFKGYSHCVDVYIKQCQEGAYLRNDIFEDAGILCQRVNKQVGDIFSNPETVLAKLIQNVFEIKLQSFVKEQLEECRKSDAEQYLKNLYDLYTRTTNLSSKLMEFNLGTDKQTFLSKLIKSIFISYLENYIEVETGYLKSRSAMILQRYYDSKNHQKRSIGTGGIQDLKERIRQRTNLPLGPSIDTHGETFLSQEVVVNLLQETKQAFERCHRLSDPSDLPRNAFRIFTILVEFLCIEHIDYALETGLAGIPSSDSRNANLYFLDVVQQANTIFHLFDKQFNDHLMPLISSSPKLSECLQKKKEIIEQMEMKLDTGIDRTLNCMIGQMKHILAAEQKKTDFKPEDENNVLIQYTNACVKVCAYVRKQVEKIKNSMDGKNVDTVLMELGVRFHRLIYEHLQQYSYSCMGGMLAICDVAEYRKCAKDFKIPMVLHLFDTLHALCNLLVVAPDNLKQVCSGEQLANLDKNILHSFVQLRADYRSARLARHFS
# UniProt Q9UPT5: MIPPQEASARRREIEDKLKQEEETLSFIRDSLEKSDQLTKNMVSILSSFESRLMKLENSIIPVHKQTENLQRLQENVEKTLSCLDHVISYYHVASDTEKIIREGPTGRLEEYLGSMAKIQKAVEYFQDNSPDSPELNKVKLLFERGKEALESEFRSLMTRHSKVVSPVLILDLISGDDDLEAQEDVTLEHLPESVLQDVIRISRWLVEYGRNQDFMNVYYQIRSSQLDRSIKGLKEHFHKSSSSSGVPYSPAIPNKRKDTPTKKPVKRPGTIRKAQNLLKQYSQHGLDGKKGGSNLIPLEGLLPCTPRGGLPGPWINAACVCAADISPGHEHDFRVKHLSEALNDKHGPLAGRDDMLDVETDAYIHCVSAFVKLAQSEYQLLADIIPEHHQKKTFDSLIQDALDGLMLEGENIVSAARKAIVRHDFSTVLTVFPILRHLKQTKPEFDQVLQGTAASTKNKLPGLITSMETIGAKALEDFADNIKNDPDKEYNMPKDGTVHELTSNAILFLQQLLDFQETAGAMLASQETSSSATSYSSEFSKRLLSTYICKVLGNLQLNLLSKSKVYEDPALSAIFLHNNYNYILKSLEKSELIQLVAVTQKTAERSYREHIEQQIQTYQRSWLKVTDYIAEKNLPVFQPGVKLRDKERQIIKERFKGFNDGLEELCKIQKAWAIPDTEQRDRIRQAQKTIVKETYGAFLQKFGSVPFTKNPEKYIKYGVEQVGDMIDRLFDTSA
# UniProt Q8IYI6: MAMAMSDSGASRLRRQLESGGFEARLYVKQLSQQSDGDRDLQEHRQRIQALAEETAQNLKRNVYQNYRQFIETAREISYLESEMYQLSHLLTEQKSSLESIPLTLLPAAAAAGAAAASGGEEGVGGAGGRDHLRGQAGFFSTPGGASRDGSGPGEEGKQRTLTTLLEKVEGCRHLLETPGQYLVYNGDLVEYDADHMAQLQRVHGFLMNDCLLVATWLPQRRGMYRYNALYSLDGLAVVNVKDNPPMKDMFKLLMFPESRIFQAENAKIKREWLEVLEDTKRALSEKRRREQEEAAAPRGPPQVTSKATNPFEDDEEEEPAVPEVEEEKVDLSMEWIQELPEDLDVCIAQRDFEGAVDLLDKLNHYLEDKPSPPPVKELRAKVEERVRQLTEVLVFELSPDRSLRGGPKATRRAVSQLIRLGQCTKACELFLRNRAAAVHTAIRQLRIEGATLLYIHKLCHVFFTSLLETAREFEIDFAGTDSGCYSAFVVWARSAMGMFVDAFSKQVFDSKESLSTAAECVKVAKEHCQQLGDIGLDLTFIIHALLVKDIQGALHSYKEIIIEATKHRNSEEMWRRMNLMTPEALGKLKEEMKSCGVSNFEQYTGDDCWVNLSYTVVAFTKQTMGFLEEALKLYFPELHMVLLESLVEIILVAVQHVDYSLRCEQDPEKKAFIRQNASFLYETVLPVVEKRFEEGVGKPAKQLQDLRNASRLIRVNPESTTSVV
# These are yes or no findings as the source states them, for the method shown. In cells and extracts the contact can be indirect. Some binding calls cover weakened binding; strength is not graded here. Tags and fused reporters may be left off the sequences shown.
# Assays:
# [1] = target: T1, FLAG-tagged DPPA3 WT (1-150 aa)-mVenus (mouse) (UniProt Q8QZY3); assay: co-IP; anti-FLAG immunoprecipitation from lysates of HEK 293T cells transfected separately with the FLAG-tagged DPPA3-mVenus constructs; immunoblot for endogenous proteins
# T1 sequence: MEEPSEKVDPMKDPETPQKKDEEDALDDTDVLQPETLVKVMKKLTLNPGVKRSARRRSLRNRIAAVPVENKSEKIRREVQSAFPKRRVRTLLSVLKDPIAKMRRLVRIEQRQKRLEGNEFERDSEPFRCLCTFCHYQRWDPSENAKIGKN
# [2] = target: T2, FLAG-tagged DPPA3 1-60 aa-mVenus (mouse) (UniProt Q8QZY3); assay: as above
# T2 sequence: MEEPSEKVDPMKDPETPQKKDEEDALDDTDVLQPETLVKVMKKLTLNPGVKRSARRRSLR
binding [1],binding [2],Substance
binds,binds,EXOC6 (from UniProt Q8TAG9 1-804)
binds,binds,EXOC5 (from UniProt O00471 1-708)
binds,binds,EXOC7 (from UniProt Q9UPT5 1-735)
binds,binds,EXOC8 (from UniProt Q8IYI6 1-725)
